Results reported in paper PMC10482945.

Protein sequences, listed by entry. Tags and fused reporters are not part of them.
UniProt P62136: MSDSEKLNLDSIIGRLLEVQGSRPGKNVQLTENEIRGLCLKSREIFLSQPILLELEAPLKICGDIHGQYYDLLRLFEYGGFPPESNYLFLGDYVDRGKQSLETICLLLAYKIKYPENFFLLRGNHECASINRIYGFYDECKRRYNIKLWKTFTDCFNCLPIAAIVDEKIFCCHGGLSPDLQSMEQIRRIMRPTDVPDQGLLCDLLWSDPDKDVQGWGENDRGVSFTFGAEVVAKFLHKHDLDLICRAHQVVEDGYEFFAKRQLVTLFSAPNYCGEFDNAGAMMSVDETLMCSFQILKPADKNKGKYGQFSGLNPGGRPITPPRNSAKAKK
UniProt Q9H5I1: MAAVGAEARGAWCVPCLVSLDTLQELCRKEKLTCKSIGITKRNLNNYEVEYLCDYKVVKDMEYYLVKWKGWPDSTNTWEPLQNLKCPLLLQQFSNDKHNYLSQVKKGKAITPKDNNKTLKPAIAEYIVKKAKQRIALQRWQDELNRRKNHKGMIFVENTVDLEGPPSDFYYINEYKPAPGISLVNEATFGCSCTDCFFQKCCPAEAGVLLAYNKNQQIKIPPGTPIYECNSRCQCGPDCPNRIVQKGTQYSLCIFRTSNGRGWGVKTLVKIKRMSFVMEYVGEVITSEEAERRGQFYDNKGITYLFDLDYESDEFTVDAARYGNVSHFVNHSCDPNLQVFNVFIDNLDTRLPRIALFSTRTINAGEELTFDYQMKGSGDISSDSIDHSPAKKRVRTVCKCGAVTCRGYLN
UniProt P19484: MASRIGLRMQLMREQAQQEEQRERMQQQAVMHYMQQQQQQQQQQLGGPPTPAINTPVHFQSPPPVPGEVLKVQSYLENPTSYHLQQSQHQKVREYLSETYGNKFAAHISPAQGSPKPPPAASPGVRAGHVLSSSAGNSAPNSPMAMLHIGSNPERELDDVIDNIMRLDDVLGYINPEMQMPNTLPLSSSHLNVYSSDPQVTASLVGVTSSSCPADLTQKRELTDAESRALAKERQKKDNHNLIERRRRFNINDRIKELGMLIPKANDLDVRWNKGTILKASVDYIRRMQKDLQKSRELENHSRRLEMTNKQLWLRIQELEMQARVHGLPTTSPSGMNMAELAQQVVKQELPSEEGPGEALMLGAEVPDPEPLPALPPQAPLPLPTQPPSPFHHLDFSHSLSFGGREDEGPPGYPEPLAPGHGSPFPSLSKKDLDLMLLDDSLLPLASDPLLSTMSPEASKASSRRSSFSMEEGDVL
UniProt Q96SB3: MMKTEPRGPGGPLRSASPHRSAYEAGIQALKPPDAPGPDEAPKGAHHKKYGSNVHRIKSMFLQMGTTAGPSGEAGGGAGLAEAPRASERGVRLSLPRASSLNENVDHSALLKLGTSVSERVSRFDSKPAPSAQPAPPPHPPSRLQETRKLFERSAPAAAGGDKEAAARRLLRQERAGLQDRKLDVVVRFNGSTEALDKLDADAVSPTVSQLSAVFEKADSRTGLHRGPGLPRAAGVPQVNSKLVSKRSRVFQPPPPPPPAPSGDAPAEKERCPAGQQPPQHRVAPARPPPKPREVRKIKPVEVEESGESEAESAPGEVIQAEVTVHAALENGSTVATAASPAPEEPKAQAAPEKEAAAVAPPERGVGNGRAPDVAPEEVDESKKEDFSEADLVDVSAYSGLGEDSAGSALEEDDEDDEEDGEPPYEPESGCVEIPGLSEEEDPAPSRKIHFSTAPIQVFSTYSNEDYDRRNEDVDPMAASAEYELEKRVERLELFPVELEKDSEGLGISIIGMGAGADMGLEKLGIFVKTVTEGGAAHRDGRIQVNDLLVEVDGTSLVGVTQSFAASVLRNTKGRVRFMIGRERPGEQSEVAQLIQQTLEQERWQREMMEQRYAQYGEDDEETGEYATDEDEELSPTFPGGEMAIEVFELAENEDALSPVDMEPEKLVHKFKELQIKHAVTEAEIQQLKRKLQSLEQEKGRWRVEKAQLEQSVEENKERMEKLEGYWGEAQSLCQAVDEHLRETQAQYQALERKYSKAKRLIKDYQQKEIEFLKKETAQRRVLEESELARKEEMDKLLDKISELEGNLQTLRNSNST

Columns and labels:
Experiment in all cases: affinity purification with mass spectrometry; co-IP of endogenous proteins of human NP cells with anti-TFEB, anti-PPP1CA or anti-SUV39H2 antibody and protein A/G beads, 4 °C overnight, 5 washes with NP-40 lysis buffer, SDS-PAGE, LC-MS/MS
[1] = target: protein phosphatase 1 catalytic subunit alpha (PPP1CA), endogenous in nucleus pulposus cells (human (endogenous in human NPCs)) (UniProt P62136)
[2] = target: protein lysine methyltransferase suppressor of variegation 3-9 homologue 2 (SUV39H2), endogenous in nucleus pulposus cells (human (endogenous in human NPCs)) (UniProt Q9H5I1)
[3] = target: transcription factor EB (TFEB), endogenous in nucleus pulposus cells (human (endogenous in human NPCs)) (UniProt P19484)

“protein lysine methyltransferase suppressor of variegation 3-9 homologue 2 (SUV39H2), endogenous in nucleus pulposus cells (from UniProt Q9H5I1 1-410) (enzyme)” was tested, and the binding [1] was “binds”.
With “protein phosphatase 1 catalytic subunit alpha (PPP1CA), endogenous in nucleus pulposus cells (from UniProt P62136 1-330) (enzyme)” the binding [2] was “binds”.
“protein phosphatase 1 regulatory subunit 9B (PPP1R9B), endogenous in nucleus pulposus cells (from UniProt Q96SB3 1-817)” was tested, and the binding [3] was “binds”.

No constants are given. Whether binding was seen depends on the method and setting. In cells and extracts the contact can be indirect. Here binding means that the protein was enriched with, or labelled near, the bait; the list need not be complete.
